Reference: the supplement of paper PMC10849652
This is one part of the list.

Chains of the proteins cited; added tags and fusions are not shown. Lines headed by an entry give the natural chain unless they say otherwise; changes in a name come on top.
UniProt A8MXV4: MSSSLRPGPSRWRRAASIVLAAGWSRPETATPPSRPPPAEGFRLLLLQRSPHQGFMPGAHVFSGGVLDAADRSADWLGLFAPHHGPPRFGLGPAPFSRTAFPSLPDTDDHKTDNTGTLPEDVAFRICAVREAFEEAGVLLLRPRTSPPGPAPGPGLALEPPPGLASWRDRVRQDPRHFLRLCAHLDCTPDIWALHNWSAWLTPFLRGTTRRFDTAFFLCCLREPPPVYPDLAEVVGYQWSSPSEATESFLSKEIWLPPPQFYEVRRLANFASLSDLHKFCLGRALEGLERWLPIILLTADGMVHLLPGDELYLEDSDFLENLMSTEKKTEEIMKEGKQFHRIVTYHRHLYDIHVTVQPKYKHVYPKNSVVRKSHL
UniProt O75694: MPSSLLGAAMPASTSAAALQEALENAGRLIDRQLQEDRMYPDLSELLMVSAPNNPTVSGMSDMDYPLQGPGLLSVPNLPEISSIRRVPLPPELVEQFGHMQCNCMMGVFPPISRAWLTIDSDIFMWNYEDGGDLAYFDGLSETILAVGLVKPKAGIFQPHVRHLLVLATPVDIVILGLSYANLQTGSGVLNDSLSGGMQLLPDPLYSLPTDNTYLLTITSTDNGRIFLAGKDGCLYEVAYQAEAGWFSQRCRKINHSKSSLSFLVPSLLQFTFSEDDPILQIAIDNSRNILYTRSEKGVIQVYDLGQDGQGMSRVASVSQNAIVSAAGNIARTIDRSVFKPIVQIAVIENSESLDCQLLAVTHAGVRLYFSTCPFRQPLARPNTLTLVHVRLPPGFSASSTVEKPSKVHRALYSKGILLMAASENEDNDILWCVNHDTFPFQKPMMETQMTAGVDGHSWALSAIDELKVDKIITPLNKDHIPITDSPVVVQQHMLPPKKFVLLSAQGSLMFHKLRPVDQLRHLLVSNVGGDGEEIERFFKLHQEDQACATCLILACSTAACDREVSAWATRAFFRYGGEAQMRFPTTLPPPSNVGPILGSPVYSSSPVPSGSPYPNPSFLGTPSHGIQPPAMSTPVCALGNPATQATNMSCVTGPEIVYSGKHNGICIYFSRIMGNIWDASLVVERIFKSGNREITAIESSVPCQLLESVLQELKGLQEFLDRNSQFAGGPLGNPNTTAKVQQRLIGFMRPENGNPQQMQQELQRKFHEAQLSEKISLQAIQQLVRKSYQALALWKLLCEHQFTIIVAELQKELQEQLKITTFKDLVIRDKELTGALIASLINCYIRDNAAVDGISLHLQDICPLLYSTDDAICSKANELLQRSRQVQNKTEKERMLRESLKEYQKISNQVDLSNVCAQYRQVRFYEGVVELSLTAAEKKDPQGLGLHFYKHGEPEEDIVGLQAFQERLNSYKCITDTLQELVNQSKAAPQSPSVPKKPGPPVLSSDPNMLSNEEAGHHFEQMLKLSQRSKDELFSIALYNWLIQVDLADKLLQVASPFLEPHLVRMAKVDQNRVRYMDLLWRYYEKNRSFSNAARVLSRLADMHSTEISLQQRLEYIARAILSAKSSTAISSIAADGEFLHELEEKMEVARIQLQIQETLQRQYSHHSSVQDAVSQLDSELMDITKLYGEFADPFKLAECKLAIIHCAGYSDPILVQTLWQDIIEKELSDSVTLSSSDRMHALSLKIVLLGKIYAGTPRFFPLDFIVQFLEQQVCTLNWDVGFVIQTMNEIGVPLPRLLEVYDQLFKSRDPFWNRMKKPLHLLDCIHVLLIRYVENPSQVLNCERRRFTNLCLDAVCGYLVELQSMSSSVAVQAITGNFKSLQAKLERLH
UniProt Q9UKX7: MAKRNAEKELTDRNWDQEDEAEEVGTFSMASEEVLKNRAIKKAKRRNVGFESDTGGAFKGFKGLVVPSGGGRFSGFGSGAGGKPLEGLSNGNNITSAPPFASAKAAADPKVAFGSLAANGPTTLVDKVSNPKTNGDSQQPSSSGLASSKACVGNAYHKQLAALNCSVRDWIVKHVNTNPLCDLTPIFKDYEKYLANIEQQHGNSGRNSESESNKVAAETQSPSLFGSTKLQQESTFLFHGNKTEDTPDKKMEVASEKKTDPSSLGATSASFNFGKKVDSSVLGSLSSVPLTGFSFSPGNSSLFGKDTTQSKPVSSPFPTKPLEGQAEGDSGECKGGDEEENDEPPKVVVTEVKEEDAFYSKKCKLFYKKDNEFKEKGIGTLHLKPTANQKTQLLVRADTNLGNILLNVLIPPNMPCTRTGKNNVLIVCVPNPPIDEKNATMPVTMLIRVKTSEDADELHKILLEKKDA
UniProt Q8NFH3: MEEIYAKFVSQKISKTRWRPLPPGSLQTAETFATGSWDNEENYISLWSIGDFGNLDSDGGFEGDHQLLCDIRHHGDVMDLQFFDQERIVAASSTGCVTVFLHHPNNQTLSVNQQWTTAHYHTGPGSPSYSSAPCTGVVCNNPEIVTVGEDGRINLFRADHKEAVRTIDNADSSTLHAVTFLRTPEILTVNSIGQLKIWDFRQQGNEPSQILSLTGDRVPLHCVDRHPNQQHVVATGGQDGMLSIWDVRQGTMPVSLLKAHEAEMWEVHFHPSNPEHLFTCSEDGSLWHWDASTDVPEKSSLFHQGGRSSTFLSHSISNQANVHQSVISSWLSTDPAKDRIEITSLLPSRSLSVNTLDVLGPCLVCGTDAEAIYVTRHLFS
UniProt Q8WUM0: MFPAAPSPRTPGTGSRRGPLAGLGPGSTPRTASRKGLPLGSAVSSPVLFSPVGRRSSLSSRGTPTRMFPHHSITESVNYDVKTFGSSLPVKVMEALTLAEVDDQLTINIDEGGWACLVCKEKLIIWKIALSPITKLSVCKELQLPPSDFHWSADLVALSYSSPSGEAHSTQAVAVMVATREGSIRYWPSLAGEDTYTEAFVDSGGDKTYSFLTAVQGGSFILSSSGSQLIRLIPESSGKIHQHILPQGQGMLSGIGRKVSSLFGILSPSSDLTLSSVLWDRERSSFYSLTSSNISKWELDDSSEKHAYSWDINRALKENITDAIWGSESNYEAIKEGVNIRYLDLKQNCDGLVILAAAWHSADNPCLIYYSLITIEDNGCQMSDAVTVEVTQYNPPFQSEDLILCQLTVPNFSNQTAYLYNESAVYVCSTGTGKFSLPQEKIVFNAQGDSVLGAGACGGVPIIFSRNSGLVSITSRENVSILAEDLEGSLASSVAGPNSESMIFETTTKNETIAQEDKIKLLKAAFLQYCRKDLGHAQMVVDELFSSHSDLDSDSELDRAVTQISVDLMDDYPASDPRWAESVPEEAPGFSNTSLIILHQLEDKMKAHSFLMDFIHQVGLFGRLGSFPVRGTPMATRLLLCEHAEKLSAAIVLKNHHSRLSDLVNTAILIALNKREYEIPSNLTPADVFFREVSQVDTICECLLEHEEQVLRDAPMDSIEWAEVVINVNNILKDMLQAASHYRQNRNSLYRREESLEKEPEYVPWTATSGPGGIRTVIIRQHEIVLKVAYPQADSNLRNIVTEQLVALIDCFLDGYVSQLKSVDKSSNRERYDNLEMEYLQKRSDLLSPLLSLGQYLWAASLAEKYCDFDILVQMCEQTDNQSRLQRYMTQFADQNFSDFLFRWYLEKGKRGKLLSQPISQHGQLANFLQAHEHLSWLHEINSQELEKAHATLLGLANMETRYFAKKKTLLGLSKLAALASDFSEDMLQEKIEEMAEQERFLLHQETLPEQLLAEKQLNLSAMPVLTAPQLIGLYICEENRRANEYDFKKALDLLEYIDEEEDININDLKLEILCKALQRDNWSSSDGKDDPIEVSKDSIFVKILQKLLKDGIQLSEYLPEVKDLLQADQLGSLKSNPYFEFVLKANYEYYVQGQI
UniProt Q5SRE5: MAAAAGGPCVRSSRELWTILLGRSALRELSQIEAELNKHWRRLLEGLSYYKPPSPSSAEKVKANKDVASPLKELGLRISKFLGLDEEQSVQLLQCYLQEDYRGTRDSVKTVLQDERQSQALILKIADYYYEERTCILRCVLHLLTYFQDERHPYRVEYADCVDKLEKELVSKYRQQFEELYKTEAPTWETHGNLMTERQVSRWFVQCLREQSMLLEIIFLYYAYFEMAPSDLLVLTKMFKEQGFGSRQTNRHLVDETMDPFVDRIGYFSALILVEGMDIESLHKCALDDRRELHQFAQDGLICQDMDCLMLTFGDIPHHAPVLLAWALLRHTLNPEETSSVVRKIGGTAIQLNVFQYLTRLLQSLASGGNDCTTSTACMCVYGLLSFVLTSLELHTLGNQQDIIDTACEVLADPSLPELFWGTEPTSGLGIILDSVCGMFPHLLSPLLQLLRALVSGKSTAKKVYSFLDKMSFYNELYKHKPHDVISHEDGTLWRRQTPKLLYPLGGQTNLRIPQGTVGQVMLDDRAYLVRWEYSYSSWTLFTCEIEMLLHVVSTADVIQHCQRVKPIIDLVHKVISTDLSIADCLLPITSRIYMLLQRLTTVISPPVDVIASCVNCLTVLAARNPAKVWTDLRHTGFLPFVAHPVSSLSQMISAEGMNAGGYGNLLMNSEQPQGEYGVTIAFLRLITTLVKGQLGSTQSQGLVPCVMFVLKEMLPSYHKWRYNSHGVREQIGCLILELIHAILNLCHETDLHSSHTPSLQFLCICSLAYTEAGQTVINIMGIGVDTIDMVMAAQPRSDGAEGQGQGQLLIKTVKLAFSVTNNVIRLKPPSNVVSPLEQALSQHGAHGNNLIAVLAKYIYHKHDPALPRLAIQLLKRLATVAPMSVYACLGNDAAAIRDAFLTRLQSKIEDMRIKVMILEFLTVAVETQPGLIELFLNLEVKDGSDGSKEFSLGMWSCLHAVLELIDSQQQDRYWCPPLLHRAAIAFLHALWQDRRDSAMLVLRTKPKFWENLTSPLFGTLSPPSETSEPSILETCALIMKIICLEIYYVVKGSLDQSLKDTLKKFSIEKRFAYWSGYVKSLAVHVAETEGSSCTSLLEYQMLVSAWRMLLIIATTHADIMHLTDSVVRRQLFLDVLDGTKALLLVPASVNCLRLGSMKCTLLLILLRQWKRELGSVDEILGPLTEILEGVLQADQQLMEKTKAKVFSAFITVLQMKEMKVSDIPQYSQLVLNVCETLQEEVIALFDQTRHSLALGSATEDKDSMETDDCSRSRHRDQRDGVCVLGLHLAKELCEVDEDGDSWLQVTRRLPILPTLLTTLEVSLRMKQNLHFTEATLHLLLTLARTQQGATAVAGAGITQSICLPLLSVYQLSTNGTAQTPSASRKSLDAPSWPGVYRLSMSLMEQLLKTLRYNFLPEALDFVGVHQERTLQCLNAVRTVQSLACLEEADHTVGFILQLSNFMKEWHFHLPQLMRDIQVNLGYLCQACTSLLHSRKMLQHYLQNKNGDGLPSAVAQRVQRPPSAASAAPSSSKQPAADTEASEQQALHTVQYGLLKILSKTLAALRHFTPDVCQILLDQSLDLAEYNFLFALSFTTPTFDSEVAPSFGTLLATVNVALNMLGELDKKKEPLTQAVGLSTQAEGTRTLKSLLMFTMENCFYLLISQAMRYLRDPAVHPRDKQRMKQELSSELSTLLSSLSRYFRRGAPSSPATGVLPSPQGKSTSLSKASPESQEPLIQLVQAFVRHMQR
UniProt Q96CB9: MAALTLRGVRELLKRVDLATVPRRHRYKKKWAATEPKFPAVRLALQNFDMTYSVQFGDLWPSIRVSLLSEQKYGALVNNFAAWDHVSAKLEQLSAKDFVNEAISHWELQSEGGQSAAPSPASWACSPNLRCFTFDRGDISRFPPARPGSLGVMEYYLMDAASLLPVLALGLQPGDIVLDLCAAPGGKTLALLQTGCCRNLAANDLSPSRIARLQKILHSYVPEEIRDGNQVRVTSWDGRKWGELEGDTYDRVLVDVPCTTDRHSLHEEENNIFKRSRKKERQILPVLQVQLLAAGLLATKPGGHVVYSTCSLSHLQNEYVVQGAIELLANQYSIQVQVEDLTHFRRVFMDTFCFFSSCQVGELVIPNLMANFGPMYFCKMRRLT
UniProt Q96RS6: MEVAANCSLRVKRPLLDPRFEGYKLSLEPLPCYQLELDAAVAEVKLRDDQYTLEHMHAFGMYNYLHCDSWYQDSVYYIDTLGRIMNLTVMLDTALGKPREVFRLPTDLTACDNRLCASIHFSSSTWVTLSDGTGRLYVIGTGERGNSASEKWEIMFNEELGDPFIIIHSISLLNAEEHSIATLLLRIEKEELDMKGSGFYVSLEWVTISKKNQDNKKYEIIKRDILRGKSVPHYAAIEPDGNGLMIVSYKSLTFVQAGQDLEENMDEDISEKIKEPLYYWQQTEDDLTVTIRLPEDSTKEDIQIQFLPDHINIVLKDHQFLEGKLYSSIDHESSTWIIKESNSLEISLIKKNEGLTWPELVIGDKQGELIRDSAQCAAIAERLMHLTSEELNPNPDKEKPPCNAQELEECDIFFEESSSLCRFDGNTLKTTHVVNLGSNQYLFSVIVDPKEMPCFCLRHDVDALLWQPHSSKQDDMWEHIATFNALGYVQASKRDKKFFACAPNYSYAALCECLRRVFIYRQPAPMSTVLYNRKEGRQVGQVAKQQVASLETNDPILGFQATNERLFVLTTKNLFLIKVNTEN

Key:
Assay in all cases: log2 fold change, soluble protein after heating vs DMSO (PISA); higher = thermal stabilisation; K562 cells, 10 uM, 30 min; active = over 0.2 and 3.5 SD of the protein, either way, in both replicates (recomputed)
[1] = compound: CC[C@@H]1C(=O)N(C)c2cnc(Nc3ccc(C(=O)NC4CCN(C)CC4)cc3OC)nc2N1C1CCCC1
Procedure, shortened: (§1)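 K562 cells at 2×10^6 cells/mL were treated with 10 μM compound for 30 min. Aliquots were heated for 3 min across 48°C-58°C, pooled, and extracted in PBS with 0.5% NP-40 at 4°C; soluble protein was the supernatant after 21,000xg for 90 min. Soluble protein was quantified by TMTpro 16plex LC-MS/MS with channel sums equalised, and reported as log2 fold change in thermal stability against DMSO controls, with values from duplicates.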

volasertib = compound: CC[C@@H]1C(=O)N(C)c2cnc(Nc3ccc(C(=O)N[C@H]4CC[C@H](N5CCN(CC6CC6)CC5)CC4)cc3OC)nc2N1C(C)C [volasertib]
Procedure, shortened: as §1

[2] = compound: CC[C@H](C)N1C=C(C2=C(C=C(C=C21)C3=CN=C(C=C3)N4CCNCC4)C(=O)NCC5=C(C=C(NC5=O)C)C)C
Procedure, shortened: as §1

epoxomicin = compound: CC[C@H](C)[C@@H](C(=O)N[C@@H]([C@@H](C)O)C(=O)N[C@@H](CC(C)C)C(=O)[C@]1(CO1)C)NC(=O)[C@H]([C@@H](C)CC)N(C)C(=O)C [epoxomicin]
Procedure, shortened: as §1

[3] = compound: CCn1c(C(=O)N(C2CC2)C2CC2)cc2c3c(ncn3C)c(Nc3cc(C)n(C)n3)nc21
Procedure, shortened: as §1

[4] = compound: CCn1cc(-c2ccnc3[nH]c(-c4cccc(CN(C)C)c4)cc23)c(-c2ccc(NC(=O)N(C)C)cc2)n1
Procedure, shortened: as §1

[5] = compound: CN(C)CC(=O)Nc1ccc2[nH]c(=O)c3ccccc3c2c1
Procedure, shortened: as §1

rosiglitazone = compound: CN(CCOC1=CC=C(C=C1)C[C@H]2C(=O)NC(=O)S2)C3=CC=CC=N3 (racemic) [rosiglitazone]
Procedure, shortened: as §1

[6] = compound: CN1C2=C(C3=C1C(=O)N(N=C3)CC4=CC(=CC=C4)N)SC(=C2)S(=O)C
Procedure, shortened: as §1

[7] = compound: CN1CCC(CNc2ccc3ncc(-c4cccc(OC(F)(F)F)c4)n3n2)CC1
Procedure, shortened: as §1

Measured: log2 fold change

P4HB (UniProt P07237)
inactive: [1] 0.02 | volasertib 0.077 | [2] -0.012 | epoxomicin -0.019 | [3] 0.054 | [4] 0.014 | [5] -0.048 | rosiglitazone -0.013 | [6] -0.021 | [7] 0.093

P4HA1 (UniProt P13674)
inactive: [1] 0.042 | volasertib -0.011 | [2] 0.005 | epoxomicin -0.018 | [3] 0.032 | [4] 0.059 | [5] -0.014 | rosiglitazone -0.042 | [6] 0.081 | [7] 0.07

OCIAD1 (UniProt Q9NX40)
inactive: [1] 0.001 | volasertib 0.049 | [2] -0.013 | epoxomicin -0.013 | [3] 0.018 | [4] 0.006 | [5] -0.019 | rosiglitazone 0.007 | [6] -0.047 | [7] -0.099

NSUN6 (UniProt Q8TEA1)
inactive: [1] -0.012 | volasertib 0.001 | [2] 0.033 | epoxomicin 0.065 | [3] -0.012 | [4] -0.063 | [5] -0.022 | rosiglitazone 0.008 | [6] -0.05 | [7] -0.018

NUDT19 (UniProt A8MXV4)
inactive: [1] -0.02 | volasertib -0.064 | [2] 0.026 | epoxomicin 0.016 | [3] 0.008 | [4] -0.091 | [5] 0.029 | rosiglitazone 0.004 | [6] -0.054 | [7] 0.035

OCRL (UniProt Q01968)
inactive: [1] 0.142 | volasertib 0.001 | [2] 0.113 | epoxomicin -0.043 | [3] 0.024 | [4] 0.076 | [5] 0.009 | rosiglitazone 0.052 | [6] 0.039 | [7] -0.025

NUP155 (UniProt O75694)
inactive: [1] -0.005 | volasertib -0.023 | [2] 0.061 | epoxomicin 0.007 | [3] -0.058 | [4] -0.075 | [5] 0.024 | rosiglitazone 0.073 | [6] -0.077 | [7] -0.092

NUS1 (UniProt Q96E22)
inactive: [1] 0.026 | volasertib 0.01 | [2] -0.006 | epoxomicin 0.05 | [3] 0.01 | [4] -0.037 | [5] -0.037 | rosiglitazone -0.023 | [6] -0.025 | [7] 0.066

NUDT9 (UniProt Q9BW91)
inactive: [1] -0.097 | volasertib -0.181 | [2] 0.024 | epoxomicin 0.009 | [3] 0.049 | [4] -0.067 | [5] 0.014 | rosiglitazone 0.069 | [6] -0.016 | [7] 0.097

NUDT5 (UniProt Q9UKK9)
inactive: [1] 0.009 | volasertib 0.032 | [2] -0.019 | epoxomicin 0.008 | [3] 0.026 | [4] 0.022 | [5] -0.006 | rosiglitazone -0.01 | [6] -0.017 | [7] -0.021

NUP54 (UniProt Q7Z3B4)
inactive: [1] 0.003 | volasertib -0.027 | [2] 0.034 | epoxomicin 0.026 | [3] -0.105 | [4] -0.104 | [5] 0.089 | rosiglitazone 0.061 | [6] 0.011 | [7] -0.122

NUP50 (UniProt Q9UKX7)
inactive: [1] 0.073 | volasertib 0.084 | [2] 0.022 | epoxomicin 0.009 | [3] 0.017 | [4] -0.048 | [5] -0.026 | rosiglitazone 0.007 | [6] -0.079 | [7] 0

OTC (UniProt P00480)
inactive: [1] 0.258 | volasertib 0.183 | [2] -0.267 | epoxomicin -0.146 | [3] -0.033 | [4] 0.104 | [5] -0.087 | rosiglitazone 0.109 | [6] 0.059 | [7] -0.147

NUP37 (UniProt Q8NFH4)
inactive: [1] -0.011 | volasertib -0.156 | [2] -0.009 | epoxomicin 0.027 | [3] -0.008 | [4] -0.004 | [5] -0.01 | rosiglitazone 0.007 | [6] 0.008 | [7] -0.034

NUP43 (UniProt Q8NFH3)
inactive: [1] 0.003 | volasertib -0.061 | [2] 0.01 | epoxomicin 0.028 | [3] -0.041 | [4] -0.032 | [5] -0.02 | rosiglitazone 0.03 | [6] -0.027 | [7] 0.001

NUP133 (UniProt Q8WUM0)
inactive: [1] -0.041 | volasertib -0.036 | [2] 0.017 | epoxomicin -0.089 | [3] -0.065 | [4] 0.048 | [5] 0.009 | rosiglitazone -0.064 | [6] 0.154 | [7] -0.046

NSMCE3 (UniProt Q96MG7)
inactive: [1] 0.093 | volasertib 0.032 | [2] -0.121 | epoxomicin -0.004 | [3] -0.033 | [4] -0.016 | [5] 0.008 | rosiglitazone -0.014 | [6] 0.023 | [7] 0.204

NSUN5 isoform 2 (UniProt Q96P11)
inactive: [1] 0.102 | volasertib -0.049 | [2] 0.046 | epoxomicin 0.004 | [3] 0.043 | [4] 0.085 | [5] -0.039 | rosiglitazone -0.113 | [6] 0.112 | [7] -0.032

OSTF1 (UniProt Q92882)
inactive: [1] -0.182 | volasertib -0.072 | [2] -0.062 | epoxomicin 0.055 | [3] -0.059 | [4] -0.093 | [5] 0.07 | rosiglitazone 0.002 | [6] 0.008 | [7] -0.056

NUP188 (UniProt Q5SRE5)
inactive: [1] -0.081 | volasertib -0.204 | [2] 0.055 | epoxomicin 0.015 | [3] -0.097 | [4] -0.035 | [5] 0.063 | rosiglitazone 0.132 | [6] -0.03 | [7] -0.07

NUP35 (UniProt Q8NFH5)
inactive: [1] 0.063 | volasertib 0.012 | [2] 0.015 | epoxomicin 0.096 | [3] -0.024 | [4] -0.031 | [5] 0.023 | rosiglitazone 0.021 | [6] 0.035 | [7] -0.133

NT5C (UniProt Q8TCD5)
inactive: [1] 0.023 | volasertib 0.07 | [2] -0.021 | epoxomicin 0.003 | [3] -0.009 | [4] -0.051 | [5] -0.04 | rosiglitazone 0.01 | [6] -0.034 | [7] -0.025

NSUN4 (UniProt Q96CB9)
inactive: [1] 0.076 | volasertib 0.064 | [2] 0.046 | epoxomicin 0.009 | [3] -0.033 | [4] -0.018 | [5] -0.064 | rosiglitazone -0.047 | [6] 0.099 | [7] 0.04

OLA1 (UniProt Q9NTK5)
inactive: [1] -0.041 | volasertib -0.091 | [2] 0.047 | epoxomicin 0.046 | [3] 0.012 | [4] -0.031 | [5] -0.031 | rosiglitazone 0.024 | [6] -0.052 | [7] -0.02

NT5C3A (UniProt Q9H0P0)
inactive: [1] 0.018 | volasertib 0.03 | [2] -0.022 | epoxomicin 0.059 | [3] -0.054 | [4] -0.039 | [5] 0.175 | rosiglitazone 0.061 | [6] 0.149 | [7] -0.053

NUDT16L1 (UniProt Q9BRJ7)
inactive: [1] 0.013 | volasertib 0.064 | [2] -0.048 | epoxomicin 0.015 | [3] 0.018 | [4] 0.002 | [5] 0.021 | rosiglitazone -0.047 | [6] -0.013 | [7] -0.009

NUDCD1 (UniProt Q96RS6)
inactive: [1] -0.046 | volasertib -0.149 | [2] 0.025 | epoxomicin 0.028 | [3] 0.001 | [4] -0.069 | [5] 0.022 | rosiglitazone 0.024 | [6] -0.073 | [7] -0.087

OGDH (UniProt Q02218)
inactive: [1] 0.015 | volasertib 0.13 | [2] 0.048 | epoxomicin 0.03 | [3] -0.079 | [4] -0.042 | [5] 0.009 | rosiglitazone 0.087 | [6] 0.06 | [7] 0.087

NUDCD3 (UniProt Q8IVD9)
inactive: [1] -0.107 | volasertib -0.238 | [2] 0.049 | epoxomicin 0.028 | [3] 0.004 | [4] -0.102 | [5] 0.03 | rosiglitazone 0.056 | [6] -0.032 | [7] -0.087

Quoted at random: 2 entries already listed, in no set order.
P4HB (UniProt P07237)
inactive: [1] 0.02 | volasertib 0.077 | [2] -0.012 | epoxomicin -0.019 | [3] 0.054 | [4] 0.014 | [5] -0.048 | rosiglitazone -0.013 | [6] -0.021 | [7] 0.093

NUP133 (UniProt Q8WUM0)
inactive: [1] -0.041 | volasertib -0.036 | [2] 0.017 | epoxomicin -0.089 | [3] -0.065 | [4] 0.048 | [5] 0.009 | rosiglitazone -0.064 | [6] 0.154 | [7] -0.046

Further entries

NUBPL (UniProt Q8TB37)
inactive: [1] 0.036 | volasertib 0.01 | [2] 0.002 | epoxomicin -0.058 | [3] -0.052 | [4] 0.02 | [5] -0.022 | rosiglitazone -0.006 | [6] -0.009 | [7] 0.082
